Laboratory results taken from PubChem BioAssay AID1159577 (Broad Institute, 2015).
About 240 (18%) of roughly 1,300 compounds were called active. Inconclusive results (about 8%) are left out. No rule for the calls is given here. This is a selection; strong and weak results do not stand in their true shares. Potency and affinity values are given separately.

Experiment: toxicity to human hepatoma HepG2 cells – cell-based, cherry-picked samples, cytotoxicity control, dose response (AID 1159577);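 also: 0% = neutral control wells and -100% = positive control wells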
Settings: HepG2 cytotoxicity counterscreen, plate reader; at 19.5 µM (top of the series) unless noted

Structure (SMILES)	activity change, negative = cytotoxicity
OC[C@H]1Nc2ccc(C#Cc3cccnc3)cc2[C@H]2NCC[C@H]21	inactive: 1.97%
Cc1ccc(OC(=O)N(C)C[C@H]2OCc3ccccc3-c3c(n(C)c4ccccc34)C(=O)N([C@H](C)CO)C[C@@H]2C)cc1	inactive: 8.6%
O=C(Cc1ccccn1)N1CCCCN2[C@@H](CO)[C@@H](c3ccc(C#Cc4ccccc4)cc3)[C@@H]2C1	inactive: -35% [at 21 µM]
O=C(C1CC1)N1C[C@@H]2N[C@H](C1)[C@@H]2c1ccc(-c2ccncc2)cc1	inactive: -7.99%
